These results are taken from patent US20120003630.

By UniProt entry, the sequences of proteins in these tests, tags left out. Where a name states a change or a piece, a line headed by the entry shows the natural chain unless it says otherwise.
UniProt P00573: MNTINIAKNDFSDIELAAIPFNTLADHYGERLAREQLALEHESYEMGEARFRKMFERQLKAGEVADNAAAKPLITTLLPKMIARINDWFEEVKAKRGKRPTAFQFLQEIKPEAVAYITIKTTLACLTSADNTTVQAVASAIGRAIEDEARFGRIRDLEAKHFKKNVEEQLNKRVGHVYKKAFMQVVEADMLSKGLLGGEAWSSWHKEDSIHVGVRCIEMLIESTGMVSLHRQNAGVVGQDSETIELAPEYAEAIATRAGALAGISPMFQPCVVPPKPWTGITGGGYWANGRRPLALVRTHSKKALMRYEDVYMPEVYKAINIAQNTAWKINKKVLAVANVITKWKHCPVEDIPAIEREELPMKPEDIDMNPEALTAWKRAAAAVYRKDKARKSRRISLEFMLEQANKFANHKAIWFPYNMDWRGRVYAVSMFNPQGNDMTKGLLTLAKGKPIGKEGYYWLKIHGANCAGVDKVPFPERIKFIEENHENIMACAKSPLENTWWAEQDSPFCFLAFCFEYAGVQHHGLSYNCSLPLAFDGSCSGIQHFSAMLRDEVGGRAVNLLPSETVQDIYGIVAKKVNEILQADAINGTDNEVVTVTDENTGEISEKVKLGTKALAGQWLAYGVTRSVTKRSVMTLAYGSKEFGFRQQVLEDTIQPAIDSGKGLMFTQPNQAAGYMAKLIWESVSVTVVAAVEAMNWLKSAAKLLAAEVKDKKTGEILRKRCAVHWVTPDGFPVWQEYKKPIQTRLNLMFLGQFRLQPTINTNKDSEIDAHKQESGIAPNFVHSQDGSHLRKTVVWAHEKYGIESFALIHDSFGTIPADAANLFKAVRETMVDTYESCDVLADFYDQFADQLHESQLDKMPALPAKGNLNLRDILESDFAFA
UniProt P07659: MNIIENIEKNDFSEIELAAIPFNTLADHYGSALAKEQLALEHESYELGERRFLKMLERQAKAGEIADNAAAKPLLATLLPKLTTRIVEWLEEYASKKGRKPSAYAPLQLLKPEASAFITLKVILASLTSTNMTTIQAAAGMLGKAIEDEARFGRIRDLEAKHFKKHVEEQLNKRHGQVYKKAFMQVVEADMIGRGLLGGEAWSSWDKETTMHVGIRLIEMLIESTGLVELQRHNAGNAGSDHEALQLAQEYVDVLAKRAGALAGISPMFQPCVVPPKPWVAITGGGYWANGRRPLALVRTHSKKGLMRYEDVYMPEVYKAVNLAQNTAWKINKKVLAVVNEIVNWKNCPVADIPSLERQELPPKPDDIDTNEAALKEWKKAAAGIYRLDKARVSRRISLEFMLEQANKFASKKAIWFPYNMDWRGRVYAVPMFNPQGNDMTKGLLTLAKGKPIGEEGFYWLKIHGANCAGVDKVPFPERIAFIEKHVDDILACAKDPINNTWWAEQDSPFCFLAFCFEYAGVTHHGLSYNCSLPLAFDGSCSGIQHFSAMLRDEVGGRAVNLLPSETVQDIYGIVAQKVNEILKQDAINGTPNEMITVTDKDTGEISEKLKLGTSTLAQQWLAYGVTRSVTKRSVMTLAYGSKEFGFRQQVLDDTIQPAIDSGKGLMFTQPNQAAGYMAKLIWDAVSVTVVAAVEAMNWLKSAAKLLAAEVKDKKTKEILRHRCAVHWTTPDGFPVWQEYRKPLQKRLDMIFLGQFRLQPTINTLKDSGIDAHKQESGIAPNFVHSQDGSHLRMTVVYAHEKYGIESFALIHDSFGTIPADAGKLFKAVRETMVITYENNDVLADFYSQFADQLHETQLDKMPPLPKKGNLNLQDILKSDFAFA

The target of series [1] is T7 RNA polymerase (Bacteriophage T7) (UniProt P00573). The series can be described thus: activity in cells. The following applies: transcription of GFP or T3 RNAP in E. coli RTC counters, 37 C; protein in cells; protein details: gene from NCBI NC_001604.1; only the site is given.
In series [2] the target is T3 RNA polymerase (Bacteriophage T3) (UniProt P07659). Kind of series: activity in cells. The settings on record: transcription of GFP in E. coli RTC 3-Counter, 37 C; protein in cells; protein details: gene from NCBI NC_003298.1; only the site is given.

On to “TAATACGACTCACTATAGGGAGA (double strand) [T7 promoter]”, for which the functional effect entry in series [1] was “active”.
Turning to “ATTAACCCTCACTAAAGGGAGA (double strand) [T3 promoter 14.3m]”, in series [2], the functional effect result was “active”.
